# Results from one PubChem assay

Source: PubChem BioAssay AID463188 (University of Pittsburgh Molecular Library Screening Center, 2010).

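Counterscreen z-score for each compound in a recombinant Hck-YEEI:Nef Z-Lyte FRET kinase setup using a p-Tyr peptide, with a 50 min kinase step and 60 min development.
Compounds were tested at a single concentration of 10 µM.
The number is a z-score for the p-Tyr peptide counterscreen; higher values mean a stronger counterscreen signal, and values above 3 mark a compound as likely interfering.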

Common to all entries: measured here: p-Tyr peptide counterscreen.
This is a side read-out of the assay, for part of the compounds, not drawn at random.

COc1ccc(C2CC(c3cccs3)=NN2c2ccc(C=O)cc2)cc1 (stereo unspecified) read z-score 53.
CCOc1ccc(N2CC(O)=C(c3nc4ccccc4c(=O)[nH]3)C2=N)cc1 read z-score 0.8533.
COC(=O)c1sc2ncccc2c1OCc1c(Cl)cccc1Cl read z-score 2.199.
NC(=S)n1[nH]c(-c2ccc([N+](=O)[O-])cc2)c(N=Nc2cccc([N+](=O)[O-])c2)c1=O read z-score 1.055.
C=CCn1c(SCC(=O)Nc2sccc2C#N)nc2sc(C)c(C)c2c1=O read z-score 2.056.
COc1ccc(/C=N/Nc2nc(-c3ccc(C)cc3)c(NC(C)=O)s2)cc1 read z-score 0.01764.
O=C(O)c1cc(N2N=C(C(F)(F)F)/C(=C/C=C/c3ccco3)C2=O)ccc1Cl read z-score -1.689.
COc1cc(NC(=O)c2cccs2)c(C(=O)OCC(=O)NC(=O)NCc2ccccc2)cc1OC read z-score 0.06895.
COc1ccc(-c2oc3ncnc(NCCCN4CCOCC4)c3c2-c2ccc(OC)cc2)cc1 read z-score -0.1613.
O=C(Nc1cccc(Oc2ccc(C(=O)O)c(C(=O)O)c2)c1)c1ccc(-c2ccccc2)cc1 read z-score -1.663.
O=C(Nc1nc2ccc(S(=O)(=O)N3CCCC3)cc2s1)c1ccccn1 read z-score -1.715.
COc1cc(-c2ccc(Nc3ccccc3C(=O)O)c(OC)c2)ccc1Nc1ccccc1C(=O)O read z-score -0.7972.
NC(=S)/N=C/c1c(O)[nH]c(=O)[nH]c1=O read z-score -1.213.
C/C(=N\NC(=O)c1cccc(N/N=C(\C)c2cc(O)ccc2O)c1)c1cc(O)ccc1O read z-score 1.314.
CC(=O)Nc1sc(N/N=C/c2ccc(C)cc2)nc1-c1ccc(C)cc1 read z-score -1.871.
O=C(O)Cn1cc(/C=C2\C(=O)NC(=O)N(Cc3ccco3)C2=O)c2ccccc21 read z-score -1.922.
O=C(Cn1c2ccc(F)cc2c2nc3n(c(=O)c21)CCS3)Nc1ccccc1C(F)(F)F read z-score -0.4432.
C#CCn1c(=NC(=O)c2sc3ccccc3c2Cl)sc2cc(S(N)(=O)=O)ccc21 read z-score 0.4284.
O=C(c1cnn(C(=O)c2cccc(S(=O)(=O)N3CCOCC3)c2)c1)c1ccccc1O read z-score -1.597.
Cc1ccc(N=Cc2cc(Cc3ccccc3Cl)cc([N+](=O)[O-])c2O)c(O)c1 read z-score 0.8464.
O=C1NC(=O)C(=Cc2coc3ccc(O)cc3c2=O)C(=O)N1 read z-score -0.6571.
Cc1nc(SCC(=O)Nc2ccc3c(c2)OCCO3)c2oc3ccccc3c2n1 read z-score 2.458.
CCS/C(N)=N/N=C/c1cc(C)ccc1O read z-score 2.766.
COc1ccc(N=c2oc3cc(O)ccc3cc2C(=O)Nc2ccccn2)cc1OC read z-score 5.006.
Nc1c(C(=O)N/N=C/c2ccccc2)cnn1-c1ccccc1 read z-score -1.211.
Cc1cccc(N=C2NC(=O)/C(=C/C=C/c3ccco3)S2)c1C read z-score -0.2526.
CCN(CC)c1nc2ccccc2nc1-n1nc(C)cc1C read z-score 8.074.
CC1=NN(c2cccc(C(=O)O)c2)C(=O)/C1=C\C=C/c1ccccc1 read z-score 0.7613.
CCOC(=O)c1ccc2c(c1)C1C=CCC1C(C(=O)O)N2 (stereo unspecified) read z-score 0.8741.
CC1(C)CC(=O)C2=C(C1)c1c(ccc3ccccc13)NC2c1cc([N+](=O)[O-])cc([N+](=O)[O-])c1O (stereo unspecified) read z-score -1.995.
Cc1ccc(CN2C(=O)N/C(=C\c3ccc(-c4ccc(C(=O)O)cc4C)o3)C2=O)cc1 read z-score 47.38.
Fc1cccc(-n2c(-c3cccs3)nc3nc4ccccc4nc32)c1 read z-score 1.445.
CC1(c2ccccc2)CC(C)(C)N2C(=O)/C(=C3\SC(=S)NC3=O)c3cccc1c32 (stereo unspecified) read z-score -0.4075.
O=C(Nc1nc2ccsc2c(=O)s1)c1ccco1 read z-score 12.9.
COc1ccc(CCNc2ccc(C(CC(N)=O)NC(=O)Cc3ccc(Br)cc3)cc2[N+](=O)[O-])cc1 (stereo unspecified) read z-score -1.905.
COc1ccccc1C(=O)Oc1cc(N)n(S(=O)(=O)c2ccccc2)n1 read z-score 0.5827.
Cc1cc(O)c(-c2cc(C(=O)Nc3sc4c(c3C(=O)NCc3ccco3)CCC4)[nH]n2)cc1C read z-score -1.307.
COC(=O)CCC(=O)OC1(C)C(=O)C2=COC(c3ccc(OC)cc3)=CC2=C(Br)C1=O (stereo unspecified) read z-score -1.435.
COc1ccc(OC)c(NC(=O)Cn2cc(C#N)c3cc(Br)ccc32)c1 read z-score 2.668.
O=C(N/N=C/c1cccc([N+](=O)[O-])c1)c1ccccc1-n1cccc1 read z-score 8.222.